Holding throughout (assay): two-hybrid; yeast; clones grown on synthetic dropout medium without histidine (−HIS) plus 1 mM 3AT (1 or 5 mM 3AT for the ARF6 fragments); activation domain and DNA binding domain fusions
Assay [1] has as its target T1, ARF6 (auxin response factor 6), yeast two-hybrid fusion (Arabidopsis thaliana) (UniProt Q9ZTX8).
T1 sequence: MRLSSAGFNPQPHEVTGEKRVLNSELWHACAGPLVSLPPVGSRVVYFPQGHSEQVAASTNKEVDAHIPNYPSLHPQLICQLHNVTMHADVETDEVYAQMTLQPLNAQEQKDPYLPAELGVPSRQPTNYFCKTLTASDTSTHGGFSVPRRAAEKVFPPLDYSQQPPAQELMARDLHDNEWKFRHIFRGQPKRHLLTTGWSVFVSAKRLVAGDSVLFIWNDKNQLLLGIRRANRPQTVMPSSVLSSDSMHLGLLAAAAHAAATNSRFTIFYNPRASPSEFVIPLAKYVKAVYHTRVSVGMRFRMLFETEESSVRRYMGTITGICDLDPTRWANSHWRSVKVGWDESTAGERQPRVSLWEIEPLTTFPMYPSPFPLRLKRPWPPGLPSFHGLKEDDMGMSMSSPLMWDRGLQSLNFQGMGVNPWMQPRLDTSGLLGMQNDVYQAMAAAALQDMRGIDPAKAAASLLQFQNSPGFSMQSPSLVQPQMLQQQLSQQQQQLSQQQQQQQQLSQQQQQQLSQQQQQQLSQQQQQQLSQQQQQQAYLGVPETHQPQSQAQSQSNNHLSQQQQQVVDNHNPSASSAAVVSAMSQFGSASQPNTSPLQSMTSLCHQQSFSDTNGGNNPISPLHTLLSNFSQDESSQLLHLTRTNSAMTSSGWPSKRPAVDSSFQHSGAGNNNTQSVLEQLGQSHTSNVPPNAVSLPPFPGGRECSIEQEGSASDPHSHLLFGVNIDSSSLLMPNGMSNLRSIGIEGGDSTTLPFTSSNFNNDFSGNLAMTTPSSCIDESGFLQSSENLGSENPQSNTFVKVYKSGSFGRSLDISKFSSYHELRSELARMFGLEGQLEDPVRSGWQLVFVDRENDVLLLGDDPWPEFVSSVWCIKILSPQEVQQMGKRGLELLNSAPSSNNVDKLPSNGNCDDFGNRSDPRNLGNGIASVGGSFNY

Assay [2] addresses ARF6 D (DNA binding domain of ARF6), yeast two-hybrid fusion (Arabidopsis thaliana).
The target in assay [3] is ARF6 M (middle domain of ARF6), yeast two-hybrid fusion (Arabidopsis thaliana).

No constants are given. Whether binding was seen depends on the method and setting. Binding can be weak; no strength is given. Where a sequence is shown, tags or fusion partners need not be part of it.

On to “C-terminal domain of BZR1, yeast two-hybrid fusion (Arabidopsis thaliana) (domain or fragment)”, for which, in assay [1], the binding entry is “binds”.

B1: RGA-C (RGA with deletion of N-terminal 208 amino acids), yeast two-hybrid fusion (domain or fragment, UniProt Q9SLH3 209-587)
chain: VILVDSQENGVRLVHALMACAEAIQQNNLTLAEALVKQIGCLAVSQAGAMRKVATYFAEALARRIYRLSPPQNQIDHCLSDTLQMHFYETCPYLKFAHFTANQAILEAFEGKKRVHVIDFSMNQGLQWPALMQALALREGGPPTFRLTGIGPPAPDNSDHLHEVGCKLAQLAEAIHVEFEYRGFVANSLADLDASMLELRPSDTEAVAVNSVFELHKLLGRPGGIEKVLGVVKQIKPVIFTVVEQESNHNGPVFLDRFTESLHYYSTLFDSLEGVPNSQDKVMSEVYLGKQICNLVACEGPDRVERHETLSQWGNRFGSSGLAPAHLGSNAFKQASMLLSVFNSGQGYRVEESNGCLMLGWHTRPLITTSAWKLSTAAY
For B1, the binding result was “binds weakly” in assay [2] and “binds” in assay [3].

Source of the values: paper PMC4075450.
